In doi:10.1101/2025.05.20.655051:
These are yes or no findings as the source states them, for the method shown. Some results given as binding are weak or reduced against the parent protein; the word gives no strength. Where a sequence is shown, tags or fusion partners need not be part of it.

Target: VIPP1-His (VIPP1 C-terminally tagged by 6xHis) (Arabidopsis thaliana) (UniProt O80796)
Experiment: native gel or EMSA

- binding: binds
B1: VIPP1-His (VIPP1 C-terminally tagged by 6xHis) (protein, UniProt O80796 65-330)
chain: CNGHGATMNLFERFSRVVKSYANALISSFEDPEKILEQTVIEMNSDLTKMRQATAQVLASQKQLQNKYKAAQQSSDDWYKRAQLALAKGDEDLAREALKRRKSFADNATALKTQLDQQKGVVDNLVSNTRLLESKIQEAKAKKDTLLARARTAKTATKVQEMIGTVNTSGALSAFEKMEEKVMAMESEADALTQIGTDELEGKFQMLETSSVDDDLADLKKELSGSSKKGELPPGRSTVAASTRYPFKDSEIENELNELRRKANDF
